According to PubChem BioAssay AID493014 (National Center for Advancing Translational Sciences (NCATS), 2011):
This is one part of the list. The main result of the screen is listed elsewhere. These columns were measured beside it and carry no call. The list favours compounds with an active or inconclusive main result. Potencies come from curve fits of mixed quality, noted in brackets.

Test: qHTS Assay to Find Inhibitors of Chronic Active B-Cell Receptor Signaling
Conditions: ABC-DLBCL IkBa-CBG/CBR reporter, luminescence ratio (green luciferase fused to IkBa over red control in TMD8 lymphoma cells), 4 h
In short: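 Cell line TMD8 (human ABC DLBCL), stably expressing tet-inducible CBG68-IkBa fusion and CBR; IMDM/0.5% FBS; cpd up to 46 uM; dox induction, 4 h, 37C/5% CO2; dual luminescence; green/red ratio; MG132 control.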

[1] = measured here: CBR red luminescence, cell number
[2] = measured here: IkBa-CBG green luminescence

## Cc1cc2c(C)nc(N/N=C/c3ccc([N+](=O)[O-])cc3)nc2o1
[1]
  AC50: 0.651 µM [rising, full curve]

## O=C1C2C(C(=O)N1/N=C/c1ccc([N+](=O)[O-])o1)C1C=CC2C12CC2 (stereo not drawn)
[1]
  AC50: 18.4 µM [falling, single point]
[2]
  AC50: 18.4 µM [falling, partial curve, poor fit]

## Cc1cnc(NC(=O)Nc2ccc(Cl)cc2)s1
[1]
  AC50: 0.1 µM [rising, full curve, poor fit]

## COc1cccc(CNC(=O)c2ccc(NC(=O)C3=CSCCO3)cc2)c1
[1]
  AC50: 11.2 µM [rising, partial curve]

## COc1ccc(/C=C2/SC(=O)N(CCC(=O)Nc3ccc(S(=O)(=O)Nc4nccs4)cc3)C2=O)cc1
[1]
  AC50: 11.6 µM [falling, partial curve]

## Cn1cc(Cl)c(C(=O)NC(=S)Nc2sc3c(c2C#N)CCCCC3)n1
[1]
  AC50: 11.6 µM [rising, partial curve]

## Cc1ccc(C(=O)OCC(=O)NCCc2ccccc2)cc1C
[1]
  AC50: 20.6 µM [rising, single point]

## COC(=O)C1(C(F)(F)F)N=C(C(F)(F)F)Nc2ccc(Cl)cc21 (stereo not drawn)
[1]
  AC50: 13 µM [rising, partial curve, poor fit]

## Cc1c(OCC(=O)OC(C)C)ccc2c3c(c(=O)oc12)CCC3
[1]
  AC50: 11.6 µM [rising, partial curve, poor fit]

## Cc1cc(C)c(C#N)c(SCSCc2ccccc2)n1
[1]
  AC50: 29.1 µM [rising, single point]

## Cc1cc(-c2ccc(C)c(S(=O)(=O)NCCCN3CCN(c4ccccc4F)CC3)c2)on1
[1]
  AC50: 28.2 µM [falling, single point]

## C=CCSc1nnc(-c2cccnc2)o1
[1]
  AC50: 23.1 µM [rising, partial curve, poor fit]

## O=C(COC(=O)Cn1cc(C(F)(F)F)ccc1=O)NCc1ccccc1
[1]
  AC50: 11.6 µM [rising, partial curve, poor fit]

## O=[N+]([O-])c1ccc2cn(-c3ccccc3)nc2c1
[1]
  AC50: 1.46 µM [rising, partial curve, poor fit]

## Cc1ccc([N+](=O)[O-])cc1Nc1nc(N2CCCC2)nc(N2CCCC2)n1
[1]
  AC50: 35.5 µM [rising, partial curve, poor fit]

## O=C(CSc1ncnc2ccccc12)c1cccs1
[1]
  AC50: 7.08 µM [falling, partial curve]
[2]
  AC50: 12.6 µM [rising, partial curve, poor fit]

## CN(CC(=O)Nc1ccc2c(c1)OCCO2)S(=O)(=O)c1ccc(Br)s1
[1]
  AC50: 2.06 µM [falling, partial curve, poor fit]

## O=C(Nc1ccc(Cl)cc1Cl)c1cc(S(=O)(=O)NCc2ccc3c(c2)OCO3)ccc1F
[1]
  AC50: 28.2 µM [rising, single point]

## CCCCNC(=O)c1c(N)n(/N=C/c2ccccn2)c2nc3ccccc3nc12
[1]
  AC50: 2.24 µM [falling, full curve]

## COc1cc(/C=N/NC(=O)Cc2ccccc2)cc(OC)c1OC
[1]
  AC50: 28.2 µM [rising, single point]

## O=C(O)c1ccc(/C=N/Nc2nc3ccccc3[nH]2)cc1
[1]
  AC50: 1.26 µM [falling, full curve, poor fit]

## Cc1ccc(/C=C/C(=O)c2ccccc(=O)c2O)cc1C
[1]
  AC50: 29.1 µM [falling, single point]

## COc1ccc(CC(=O)Nc2nnc(C(C)C)s2)cc1
[1]
  AC50: 11.2 µM [rising, partial curve, poor fit]

## Cc1cc(Cl)ccc1NC(=O)CN1CCN(C(=O)c2ccco2)CC1
[1]
  AC50: 5.01 µM [rising, full curve, poor fit]

## Cc1cccc(NC(=O)c2cccc(S(=O)(=O)N3CCc4ccccc4C3)c2)n1
[1]
  AC50: 6.51 µM [rising, single point]

## CCOC(=O)Cc1csc(NC(=O)c2csc(C)c2)n1
[1]
  AC50: 29.1 µM [falling, single point]

## O=C(Cc1ccc(F)cc1)c1ccc(O)cc1O
[1]
  AC50: 29.1 µM [rising, single point]

## Cc1ccc(-n2c(C)cc(=O)cc2C)c(C)c1
[1]
  AC50: 2.31 µM [rising, full curve, poor fit]

## COc1cccc(C=Nc2cccc3c(=O)[nH][nH]c(=O)c23)c1O
[1]
  AC50: 14.1 µM [falling, partial curve, poor fit]

## Cc1ccccc1C(=O)NNC(=O)c1ccc(F)cc1
[1]
  AC50: 15.8 µM [falling, single point]

## CCOc1ccc(NC(=O)c2cccc(-n3cccc3)c2)cc1S(=O)(=O)N1CCOCC1
[1]
  AC50: 14.6 µM [rising, partial curve]

## COc1cc(NC(=S)NCCC(c2ccccc2)c2ccccc2)c(OC)cc1Cl
[1]
  AC50: 23.1 µM [falling, partial curve, poor fit]

## Cc1sc2nc(C(C)C)nc(SCC(=O)N3c4ccccc4CC3C)c2c1C (stereo not drawn)
[1]
  AC50: 3.66 µM [rising, full curve]

## Cc1nn(Cc2ccccc2)c2c1C(c1ccncc1)C(C#N)=C(N)O2 (stereo not drawn)
[1]
  AC50: 31.6 µM [falling, partial curve, poor fit]

## ON=C1c2ccccc2-c2ccccc21
[1]
  AC50: 12.6 µM [falling, partial curve, poor fit]

## Cc1ccc(S(=O)(=O)NCCC(=O)NNC(=O)c2ccccc2Cl)cc1C
[1]
  AC50: 14.6 µM [falling, partial curve, poor fit]

## Cc1ccc(S(=O)(=O)Nc2c(NC3CCCCC3)c3ccccc3oc2=O)cc1
[1]
  AC50: 20 µM [falling, single point]

## COc1cccc(C(=O)N[C@@H](CCSC)c2nc3ccccc3[nH]2)c1
[1]
  AC50: 12.6 µM [falling, partial curve, poor fit]

## Oc1ccc(N=Nc2n[nH]c(-c3ccc(Cl)cc3)n2)cc1
[1]
  AC50: 0.891 µM [falling, full curve]

## CC(C)c1ccc(NC(=O)C2CC2c2ccccc2)cc1 (stereo not drawn)
[1]
  AC50: 14.1 µM [rising, partial curve, poor fit]

## O=C1NC(=Nc2ccccc2Cl)S/C1=C\c1cc([N+](=O)[O-])ccc1O
[1]
  AC50: 22.4 µM [falling, single point]
